Record: PubChem BioAssay AID1671195 (Yale University, 2021)
This is an unselected part of about 22,000 reagents. In the full data, about 1,510 (6.9%) got an active call. 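Active includes knockdowns raising or lowering LDL uptake; positive z-scores mean more uptake, negative mean less.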 Entries without a mark were called inactive. Reagent sequences are not shown.

- Assay: 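Knockdowns that increase or decrease uptake of fluorescent LDL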 (primary screen)
- System: human Huh7 hepatoma cells
- Reagents: siRNA pool against human genes, 18 nM
- Time to read-out: about 2 to 2.5 days of knockdown, then 8 h LDL uptake
- Treatment: DiI-labelled LDL at 30 µg/ml for 8 h, in lipoprotein-deficient serum medium
- Measured: 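Fluorescent LDL signal imaged in cells, scaled to the plate median, robust z-score for each replicate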
- Scale: robust z-score: higher = more LDL uptake after knockdown
- Call rule: 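Active when two or more replicates show a robust z-score above 2 or below -2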

With DHRS7B (GeneID 25979), what does the deposit list?
robust z-score, replicate 1: -1.09; robust z-score, replicate 2: -1.25; robust z-score, replicate 3: -1.31

What did the screen give for DAW1 (GeneID 164781)?
robust z-score, replicate 1: 0.774; robust z-score, replicate 2: -0.486; robust z-score, replicate 3: -0.207

With LOC440172 (retired record) (GeneID 440172), what was measured?
robust z-score, replicate 1: -0.694; robust z-score, replicate 2: -0.945; robust z-score, replicate 3: -1.15

What is on record for LOC442470 (retired record) (GeneID 442470)?
robust z-score, replicate 1: -0.347; robust z-score, replicate 2: 0.286; robust z-score, replicate 3: 0.0637

For RGS7BP (GeneID 401190), what does the deposit list?
robust z-score, replicate 1: -0.863; robust z-score, replicate 2: -0.544; robust z-score, replicate 3: -1.39

For FBXW8 (GeneID 26259), what does the deposit list?
robust z-score, replicate 1: -0.919; robust z-score, replicate 2: 0.423; robust z-score, replicate 3: 1.72

How did the screen score CHP1 (GeneID 11261)?
robust z-score, replicate 1: -1.83; robust z-score, replicate 2: -1.64; robust z-score, replicate 3: -1.57

For CAPN13 (GeneID 92291), how do the results read?
robust z-score, replicate 1: 0.975; robust z-score, replicate 2: -0.355; robust z-score, replicate 3: 0.0886

Individual results from the entries so far.
For “robust z-score, replicate 1”, LOC440172 (retired record) (GeneID 440172) has -0.694
Result of FBXW8 (GeneID 26259) in “robust z-score, replicate 1”: -0.919

The listing continues:
With ROCK2 (GeneID 9475), what was measured?
robust z-score, replicate 1: -0.746; robust z-score, replicate 2: -1.18; robust z-score, replicate 3: -1.43

With LINC00239 (GeneID 145200), how do the results read?
robust z-score, replicate 1: 3.16; robust z-score, replicate 2: 1.71; robust z-score, replicate 3: 1.61

What did the screen give for TMEM156 (GeneID 80008)?
robust z-score, replicate 1: 1.43; robust z-score, replicate 2: 2.17; robust z-score, replicate 3: 1.52

For CA11 (GeneID 770), how do the results read?
robust z-score, replicate 1: -1.42; robust z-score, replicate 2: -1.7; robust z-score, replicate 3: -1.84

Which result is listed for PABPC1L2A (GeneID 340529)?
robust z-score, replicate 1: -0.231; robust z-score, replicate 2: -0.096; robust z-score, replicate 3: -0.198

With PGBDF (GeneID 146853), how do the results read?
robust z-score, replicate 1: -0.649; robust z-score, replicate 2: -1.1; robust z-score, replicate 3: -1.06

Which result is listed for MCM7 (GeneID 4176)?
robust z-score, replicate 1: -0.429; robust z-score, replicate 2: 0.603; robust z-score, replicate 3: 0.586

How did the screen score UBR3 (GeneID 130507)?
robust z-score, replicate 1: 0.206; robust z-score, replicate 2: 0.488; robust z-score, replicate 3: -1.33
